Measured values taken from paper PMC10298287.
No constants are given. Whether binding was seen depends on the method and setting. Some results given as binding are weak or reduced against the parent protein; the word gives no strength.

Target: T1, AtIDD10 (JACKDAW) (Arabidopsis) (UniProt Q700D2)
T1 sequence: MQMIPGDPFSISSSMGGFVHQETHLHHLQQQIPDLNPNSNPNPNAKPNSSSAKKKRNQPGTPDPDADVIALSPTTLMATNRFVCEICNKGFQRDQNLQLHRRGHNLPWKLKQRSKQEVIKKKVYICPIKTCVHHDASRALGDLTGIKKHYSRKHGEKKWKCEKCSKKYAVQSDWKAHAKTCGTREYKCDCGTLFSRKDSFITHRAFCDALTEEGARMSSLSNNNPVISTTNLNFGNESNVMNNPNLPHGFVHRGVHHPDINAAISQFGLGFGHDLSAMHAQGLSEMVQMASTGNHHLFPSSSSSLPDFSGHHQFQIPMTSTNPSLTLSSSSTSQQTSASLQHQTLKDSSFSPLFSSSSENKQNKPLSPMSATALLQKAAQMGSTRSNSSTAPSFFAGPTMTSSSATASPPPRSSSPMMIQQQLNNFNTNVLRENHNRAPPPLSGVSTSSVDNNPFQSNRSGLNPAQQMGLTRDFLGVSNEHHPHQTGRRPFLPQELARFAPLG
Assay: two-hybrid; IDD baits in pGBT9, GRAS preys in pGAD424, yeast strain PJ69-4A; serial dilutions spotted on -LW and -LWH, 3-amino-1,2,4-triazole added as needed; 3 days at 30 °C

B1: AtSHR (protein, UniProt Q9SZF7 1-531)
chain: MDTLFRLVSLQQQQQSDSIITNQSSLSRTSTTTTGSPQTAYHYNFPQNDVVEECFNFFMDEEDLSSSSSHHNHHNHNNPNTYYSPFTTPTQYHPATSSTPSSTAAAAALASPYSSSGHHNDPSAFSIPQTPPSFDFSANAKWADSVLLEAARAFSDKDTARAQQILWTLNELSSPYGDTEQKLASYFLQALFNRMTGSGERCYRTMVTAAATEKTCSFESTRKTVLKFQEVSPWATFGHVAANGAILEAVDGEAKIHIVDISSTFCTQWPTLLEALATRSDDTPHLRLTTVVVANKFVNDQTASHRMMKEIGNRMEKFARLMGVPFKFNIIHHVGDLSEFDLNELDVKPDEVLAINCVGAMHGIASRGSPRDAVISSFRRLRPRIVTVVEEEADLVGEEEGGFDDEFLRGFGECLRWFRVCFESWEESFPRTSNERLMLERAAGRAIVDLVACEPSDSTERRETARKWSRRMRNSGFGAVGYSDEVADDVRALLRRYKEGVWSMVQCPDAAGIFLCWRDQPVVWASAWRPT
**Q.** How did the binding turn out when B1 was run?
**A.** binds
